In PubChem BioAssay AID651804 (National Center for Advancing Translational Sciences (NCATS), 2012):
Among all 1,200 compounds or so, about 20 (2%) were called active. About 23% were inconclusive and are not listed. The call rests on the fitted dose curve; in most records, active means well fitted inhibition curve with a large enough effect; inconclusive means small, poorly fitted or top-dose-only effect; inactive means no such curve, though single readings can be large or run the other way. Some of the results follow.

The chains behind the UniProt entries cited, without tags or fusion partners. Where a name states a change or a piece, a line headed by the entry shows the natural chain unless it says otherwise.
UniProt P11308: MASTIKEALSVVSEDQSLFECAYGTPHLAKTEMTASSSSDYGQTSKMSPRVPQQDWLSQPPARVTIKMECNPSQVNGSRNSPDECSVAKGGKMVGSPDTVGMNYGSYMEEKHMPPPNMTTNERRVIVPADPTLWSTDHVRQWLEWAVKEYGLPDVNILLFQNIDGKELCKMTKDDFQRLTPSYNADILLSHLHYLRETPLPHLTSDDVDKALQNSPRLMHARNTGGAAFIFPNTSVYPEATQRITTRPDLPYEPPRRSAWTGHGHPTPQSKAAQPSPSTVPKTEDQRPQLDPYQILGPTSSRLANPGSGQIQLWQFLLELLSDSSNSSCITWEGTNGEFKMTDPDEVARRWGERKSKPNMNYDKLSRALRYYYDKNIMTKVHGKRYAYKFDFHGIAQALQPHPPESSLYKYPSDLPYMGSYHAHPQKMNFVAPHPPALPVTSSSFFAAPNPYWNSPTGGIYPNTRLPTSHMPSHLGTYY

Biological target: Transcriptional regulator ERG (Homo sapiens) (UniProt P11308)
Assay: qHTS for Small Molecule Inhibitors of the ERG Ets/DNA interaction: HTRF assay against cherry picks
Details: His-ERG Ets domain with biotin-DNA; series mostly up to 154 µM; activity change, negative = inhibition: at the top concentration
Outline: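 HTRF of His-tagged ERG Ets domain (200 nM solution) with biotin-DNA (200 nM solution) in 300mM KCl, 50mM Tris-HCl pH 7.5, 1mM EDTA, 1mM DTT; 10 min RT. Anti-His cryptate donor plus streptavidin acceptor added, 10 min, FRET read at 615/665 nm.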
Potency means the concentration at half of the fitted maximal effect.

Activity change, negative = inhibition, inactive:
CC(=O)Nc1ccc(NC(=O)C(C)OC(=O)C2CCN(S(=O)(=O)c3ccc4c(c3)OCCO4)CC2)cc1 (stereo not drawn) 3.93%
Cc1ccccc1C(=O)N/N=C1/SCC(=O)N1Cc1ccccc1 1.11%
Oc1ccc(NCc2ccccc2OCc2ccccc2)cc1 -15.4%
COc1ccc(-c2n(CC(=O)OC3CC(C)CCC3C(C)C)c3ccccc3[n+]2C)cc1 (stereo not drawn) -5.73%
COc1ccc(OC)c(NC(=O)c2cn3c4c(ccc(Cl)c4c2=O)OC(C)C3)c1 (stereo not drawn) 20.2%
CCN(C(=O)COC(=O)CSc1ccc(C)cc1C)c1c(N)n(Cc2ccccc2)c(=O)[nH]c1=O -40.2%
COc1cccc(CN2CCN(S(=O)(=O)c3ccc(NC(C)=O)cc3)CC2)c1OC -6.05%
O=C1C(=O)c2ccccc2C(O)=C1C1CCC(c2ccc(Cl)cc2)CC1 (stereo not drawn) -24%
OC(Cn1cnnc1)c1ccccc1 (stereo not drawn) -24.8%
Clc1ccc(-c2cc3ccccc3nc2N2CCOCC2)cc1 12.8%
CCCn1c(=O)c(C(=O)NNS(=O)(=O)c2ccc(C)cc2)c(O)c2ccccc21 -38.8%
O=C(NCCc1ccc(Cl)cc1)C1CCCN1C(=O)Nc1ccccc1 (stereo not drawn) -5.62%
Cc1ccc(CNC(=O)COc2ccc(S(=O)(=O)N3CCCC3)cc2)cc1 -19.6%
COc1ccc(CCCC(=O)Nc2cc(C)ccc2OC)cc1 -22.2%
O=C(C1CCN(Cc2ccc(F)cc2)CC1)N1CCN(C/C=C/c2ccccc2)CC1 -29.8%
CN(C)N=Nc1ccc(S(=O)(=O)NC(Cc2ccccc2)C(=O)O)cc1 (stereo not drawn) -18%
Cc1cccc(OCc2ccc(C(=O)N3CCOCC3)o2)c1 -31.2%
c1ccc(Nc2ncnc3[nH]ncc23)cc1 -22%
Cc1ccc(C(=O)NCC(=O)NCCCc2ccccc2)s1 -29.7%
Cc1ccc(NC(=S)NC(=O)c2cncc(Br)c2)cc1Cl -29.5%
CC(=O)Nc1ccc(CCCCc2ccc(NC(C)=O)cc2)cc1 -1.91%
CCn1cc(C(=O)NCc2ccc(Cl)cc2)c(=O)c2cc(S(=O)(=O)N3CCOCC3)ccc21 -10.3%
CCn1c2ccccc2c2cc(NC(=O)COc3cc(C)ccc3C)ccc21 -24.8%
COc1ccc(-n2c(=O)c3c4c(sc3n(Cc3ccc(C(C)(C)C)cc3)c2=O)CCC4)c(OC)c1 -17.8%
Cc1noc(C)c1COC(=O)C1CCN(C(=O)c2ccc(Cl)cc2)CC1 -18.2%
COc1cc(CNc2ccc(CNc3ncn[nH]3)cc2)ccc1OCC(=O)NC(C)(C)C -5.57%
Cc1ccc(C(=O)N[C@H](C(=O)Nc2ccc(F)cc2)C(C)C)cc1 -7.64%
Cc1cc(C)nc(N2CCN(c3nnnn3-c3ccccc3)CC2)n1 3.18%
O=C(NCC(=O)N1CCCC(C(F)(F)F)C1)c1cccs1 (stereo not drawn) -13.2%
C#C[C@]1(O)CC[C@H]2[C@@H]3CCC4=CC(=O)CC[C@@H]4[C@H]3CC[C@@]21CC -11%
COc1cc(/C=C/C(=O)OC(C)C(=O)c2ccccc2)cc(OC)c1OC (stereo not drawn) 2.23%
Nc1c(C(=O)NCc2ccc(Cl)cc2Cl)nnn1Cc1ccc(Br)cc1 -9.18%
COc1ccc(NC(=O)COC(=O)C2CC(=O)N(c3ccc(C)cc3)C2)cc1 (stereo not drawn) -13.3%
O=C(Nc1ccccc1Cl)c1ccc(Cl)cc1Cl -5.15%
Cc1ccnc(NC(=O)c2cccc(S(=O)(=O)Nc3ccc(C)cc3C)c2)c1 -8.7%
COc1ccccc1C(C)NC(=O)c1cc(S(=O)(=O)N2CCCCC2)ccc1C (stereo not drawn) 0.53%
CCOC(=O)c1c(C)[nH]c(C(=O)COC(=O)CNC(=O)c2ccc(Cl)cc2Cl)c1C 5.15%
CC(=O)C(c1ccccc1)C(c1ccccc1)C(C)[N+](=O)[O-] (stereo not drawn) -25.3%
COC(=O)[C@@]1(C)[C@H]2C(=O)N(Cc3ccccc3)C(=O)[C@H]2[C@H]2CN(C)C(=NC3CCCCC3)N21 -18.7%
O=C(COc1ccc(-c2ccccc2)cc1)N1CCN(C(=O)c2cccs2)CC1 -23%
CCOC(=O)c1cn(-c2nc(-c3ccc(Cl)c(Cl)c3)cs2)c2c(F)c(N3CCOCC3)c(F)cc2c1=O 11.8%
Cc1cccc(Cc2c(C)nc3nc(SCc4ccccc4Cl)nn3c2C)c1 8.7%
O=C(NCCN1CCN(c2ccccc2)CC1)c1cccc(Br)c1 -30.5%
Cn1c(=O)oc2cc(S(=O)(=O)N3CCN(c4ccccc4F)CC3)ccc21 -25.2%
COc1ccc(OC)c(NS(=O)(=O)c2cc3c4c(c2)CCN4C(=O)CC3)c1 -17%
Cc1[nH]c(=O)[nH]c(=O)c1/C=N/NC(=O)[C@H](C)N -15.9%
Cc1cc(C)nc(NC(=O)c2ccc(Cl)cc2Cl)n1 -7.8%
COc1ccc(OCCN2CCN(C(=O)c3ccc(OC(F)F)c(OC)c3)CC2)cc1 -24.6%
CCNc1nc(NC(C)(C)C)nc(N2CCCCC2)n1 -24.9%
Cc1ccc(C)c(S(=O)(=O)N2CC(=O)N(CCc3ccccc3)C(=O)C2)c1 -3.45%
O=C(CSc1nnc(-c2cccnc2)o1)Nc1cccc(Cl)c1 -18.7%
Cc1cccc(OCC(=O)N(Cc2ccc(C(C)(C)C)cc2)Cc2ccco2)c1 -14.2%
CC(C)(C)c1ccc(OCC(=O)Nc2cccc(S(=O)(=O)NC3=NCCCCC3)c2)cc1 -9.5%
O=C(Nc1ccc2c(c1)OCO2)N1CCN(c2ccccc2)CC1 -24.7%
O=C(NC(=S)Nc1cccnc1)c1cc2ccccc2o1 -6.68%
O=C(Nc1ccccc1Br)c1ccccc1-c1ccccc1 -19%
CCCCNc1cc(F)nc(N)n1 -27.4%
O=C(CSc1ccccc1)NCc1ccc(F)cc1 -4.83%
Cc1ccc2nc3c(c(C(=O)OC4CCOC4=O)c2c1)CCCC3 (stereo not drawn) -16%
Cc1ccc2cccc(OCCCOc3ccccc3F)c2n1 -18.5%
CCCCOC(=O)c1ccc(N)cc1 -0.743%
Cc1cnc(CNC(=O)CC2C(=O)NCCN2Cc2ccccc2C(F)(F)F)cn1 (stereo not drawn) -23%
COc1ccc(Cc2nnc(Nc3ccccc3)s2)cc1Br -23.8%
O=C(Cn1cc2c(n1)CCCC2)NCc1ccccn1 -0.318%
Clc1cccc(OCCCN2CCCC2)c1Cl -28.1%
O=C(O)COc1ccc(F)cc1Br 0.318%
CC(C)C(C(=O)O)N1CCS(=O)(=O)CC1 (stereo not drawn) -22.8%
O=C(CC(c1ccccc1)c1cc(Cl)ccc1O)NCCCN1CCOCC1 (stereo not drawn) -25.3%
OCCCC1CCCCN1Cc1nc(Cc2ccccc2Cl)no1 (stereo not drawn) -19.6%
CN(C(=O)COC(=O)c1cc(S(=O)(=O)N2CCOCC2)ccc1F)C1CCS(=O)(=O)C1 (stereo not drawn) -10.2%
CC(CN1CCCCC1)NC(=O)c1cccs1 (stereo not drawn) -23.2%
CCOC(=O)NCc1ccc2c(c1)cc(C)n2C -29.8%
Cc1cccc(NC(=O)CN2C(=O)CNC2=O)c1 -0.637%
O=C(CN1C(=O)NC(c2ccc(F)cc2)C1=O)Nc1ccc2c(c1)OCCO2 (stereo not drawn) -20.4%
Cc1cccc(-n2c(-c3ccccc3)c[nH]c2=S)c1C -29.7%
CN(C)c1nc(C=C(C#N)C#N)c(Cl)n1-c1ccc(F)cc1 -21.9%
Cc1occc1C(=O)NCCc1ccc(Cl)cc1 2.02%
COc1ccccc1NC(=O)Cn1c(=O)n(CCC(=O)NCC2CCCO2)c(=O)c2cc(OC)c(OC)cc21 (stereo not drawn) -9.76%
COc1ccc(S(=O)(=O)NCCNC(=O)N2CCOCC2)cc1 -18%
O=[N+]([O-])c1ccc(Cc2ccc([N+](=O)[O-])cc2)cc1 -13%
Cn1c(=O)c2[nH]cnc2n(C)c1=O 10.9%
C/C(=N\Nc1ccc(C#N)cc1[N+](=O)[O-])c1ccc(C)o1 -34.9%
CC(=O)Nc1ccc(S(=O)(=O)NCCC(=O)OCC(=O)c2cc(C)ccc2C)cc1 -11.2%
COc1ccc(S(=O)(=O)N2CCOCC2)cc1NC(=O)CSc1nnc2n1CCCCC2 0%
O=C(NCC(=O)N(c1ccccc1)C(C(=O)NC1CCCCC1)c1cccnc1)c1ccco1 (stereo not drawn) -30.2%
COc1ccc(NC(=O)NCc2ccccn2)c(OC)c1 -13.8%
COC(=O)c1ccc2c(=O)n(CCN3CCOCC3)c(SCC(=O)Nc3ccc(OC)cc3OC)nc2c1 3.98%
COc1ccc(OC)c(NC(=O)Cn2cnc3sc(C)c(S(=O)(=O)N4CCN(c5ccccc5OC)CC4)c3c2=O)c1 -7.8%
CCOC(=O)CSc1nc2ccc(NC(=O)c3ccc(F)cc3)cc2s1 26.8%
COc1ccc(-c2cccc(NS(=O)(=O)c3cc([N+](=O)[O-])ccc3C)c2)nn1 -26.3%
NCCNc1ccc2nnnn2n1 -26.6%
Cc1cccn2c(CNCCc3ccccn3)c(C(=O)N3CCOCC3)nc12 -25%
COC(=O)c1ccc(/C=C2\Oc3ccccc3NC2=O)cc1 -15.2%
O=S(=O)(Nc1nc2ccccc2nc1NCc1ccco1)c1cccs1 -29.4%
CCOc1ccc(S(=O)(=O)N2CC(=O)Nc3ccccc32)cc1 -26.4%
O=C(CN1C(=O)c2ccccc2S1(=O)=O)NCCSCc1c(F)cccc1Cl -18%
COc1cccc(C(=O)OCC(=O)Nc2cc(C)on2)c1OC -0.743%
O=C(CNC(=S)N(CCCN1CCOCC1)Cc1cccs1)NC1CCCCC1 -25.3%
O=C(NC1CCCCCC1)c1ccc(-n2cnnc2)cc1 -14.3%
COc1ccc(-c2noc(Cn3c(=O)c4ccccc4n(CC(=O)Nc4cccc(C(F)(F)F)c4)c3=O)n2)cc1 -14.5%
NC12CC3CC(CC(C3)C1)C2 -5.2%
O=C(NCCN1CCCC1)c1ccc2c(c1)N(Cc1cccc(Cl)c1)C(=O)c1ccccc1S2(=O)=O -7.32%
COc1cccc(N=C2CC(C)(C)CC(=O)/C2=C(/O)c2ccccc2)c1 -30%
COc1ccc(C(=O)NCC(=O)N/N=C/c2cccnc2)cc1 -28.6%
CC(C)CCN1CCN(C2CCN(c3ccc4c(c3)OCO4)CC2)CC1CCO (stereo not drawn) -10.5%
COc1ccc(OCC(=O)OCc2cc(=O)n3nc(-c4cccs4)sc3n2)cc1 52.7%
Cc1ccc2c(C)c(C(=O)N(C)C(C)c3ccon3)oc2c1C (stereo not drawn) 15.3%

By substructure: the entries above containing bromine.
Activity change, negative = inhibition, inactive:
Cc1ccc(NC(=S)NC(=O)c2cncc(Br)c2)cc1Cl -29.5%
Nc1c(C(=O)NCc2ccc(Cl)cc2Cl)nnn1Cc1ccc(Br)cc1 -9.18%
O=C(NCCN1CCN(c2ccccc2)CC1)c1cccc(Br)c1 -30.5%
O=C(Nc1ccccc1Br)c1ccccc1-c1ccccc1 -19%
COc1ccc(Cc2nnc(Nc3ccccc3)s2)cc1Br -23.8%
O=C(O)COc1ccc(F)cc1Br 0.318%

Following part.

Potency, active:
O=C(Nc1ccccc1)Nc1ncc([N+](=O)[O-])s1 39.8 µM
